Data source: PubChem BioAssay AID1671195 (Yale University, 2021)
Purpose: 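Knockdowns that increase or decrease uptake of fluorescent LDL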 (primary screen). Cells: human Huh7 hepatoma cells. Knock-down reagent: siRNA pool against human genes, 18 nM. Timing: about 2 to 2.5 days of knockdown, then 8 h LDL uptake. Challenge: DiI-labelled LDL at 30 µg/ml for 8 h, in lipoprotein-deficient serum medium. Measurement: 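Fluorescent LDL signal imaged in cells, scaled to the plate median, robust z-score for each replicate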. Scale: robust z-score: higher = more LDL uptake after knockdown. Hit rule: 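Active when two or more replicates show a robust z-score above 2 or below -2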.
The whole screen tested about 22,000 reagents; shown is an unselected part. About 1,510 of them (6.9%) count as active. 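Active includes knockdowns raising or lowering LDL uptake; positive z-scores mean more uptake, negative mean less.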

How did the screen score SH3D19 (SH3 domain containing 19)?
robust z-score, replicate 1: -0.876; robust z-score, replicate 2: -1.12; robust z-score, replicate 3: -0.425; call: inactive

Which result is listed for TMEM8B (transmembrane protein 8B)?
robust z-score, replicate 1: 2.37; robust z-score, replicate 2: 2.28; robust z-score, replicate 3: -1.06; call: active

What did the screen give for GARIN2 (golgi associated RAB2 interactor family member 2)?
robust z-score, replicate 1: 0.231; robust z-score, replicate 2: -0.164; robust z-score, replicate 3: -0.923; call: inactive

With GCM2 (GCM transcription factor 2), what was measured?
robust z-score, replicate 1: 1.37; robust z-score, replicate 2: 1.16; robust z-score, replicate 3: 2.11; call: inactive

What is on record for PFKM (phosphofructokinase, muscle)?
robust z-score, replicate 1: -1.08; robust z-score, replicate 2: -0.72; robust z-score, replicate 3: -1.13; call: inactive

With CARD8 (caspase recruitment domain family member 8), what does the deposit list?
robust z-score, replicate 1: -0.283; robust z-score, replicate 2: -0.759; robust z-score, replicate 3: -0.621; call: inactive

What is on record for SPINDOC (spindlin interactor and repressor of chromatin binding)?
robust z-score, replicate 1: -1.76; robust z-score, replicate 2: -2.04; robust z-score, replicate 3: -1.17; call: inactive

For PDZD4 (PDZ domain containing 4), what was measured?
robust z-score, replicate 1: 0.122; robust z-score, replicate 2: 1.37; robust z-score, replicate 3: 2.63; call: inactive

Which result is listed for NRXN1 (neurexin 1)?
robust z-score, replicate 1: -0.0684; robust z-score, replicate 2: 0.23; robust z-score, replicate 3: 1.71; call: inactive

With LINC00939 (long independently transcribed non-coding RNA 939), how do the results read?
robust z-score, replicate 1: -0.49; robust z-score, replicate 2: -0.772; robust z-score, replicate 3: -0.994; call: inactive

How did the screen score CMC2 (C-X9-C motif containing 2)?
robust z-score, replicate 1: 0.656; robust z-score, replicate 2: 0.259; robust z-score, replicate 3: -0.378; call: inactive

Which result is listed for KTN1 (kinectin 1)?
robust z-score, replicate 1: -0.436; robust z-score, replicate 2: -0.354; robust z-score, replicate 3: -0.306; call: inactive

Which result is listed for PHF6 (PHD finger protein 6)?
robust z-score, replicate 1: 1.9; robust z-score, replicate 2: 3.31; robust z-score, replicate 3: 1.87; call: active

What is on record for LRRC19 (leucine rich repeat containing 19)?
robust z-score, replicate 1: 2.64; robust z-score, replicate 2: 2.71; robust z-score, replicate 3: 2.44; call: active

How did the screen score WEE1 (WEE1 G2 checkpoint kinase)?
robust z-score, replicate 1: -0.241; robust z-score, replicate 2: -0.0379; robust z-score, replicate 3: -0.243; call: inactive

For SERPINB12 (serpin family B member 12), what does the deposit list?
robust z-score, replicate 1: 1.92; robust z-score, replicate 2: 0.279; robust z-score, replicate 3: 1.46; call: inactive

What is on record for APPBP2 (amyloid beta precursor protein binding protein 2)?
robust z-score, replicate 1: 1.1; robust z-score, replicate 2: 0.854; robust z-score, replicate 3: 0.527; call: inactive

Which result is listed for TARS1 (threonyl-tRNA synthetase 1)?
robust z-score, replicate 1: -0.747; robust z-score, replicate 2: -0.173; robust z-score, replicate 3: -0.696; call: inactive

How did the screen score LINC00268 (long intergenic non-protein coding RNA 268)?
robust z-score, replicate 1: 0.576; robust z-score, replicate 2: 0.13; robust z-score, replicate 3: 0.363; call: inactive

What is on record for CYFIP2 (cytoplasmic FMR1 interacting protein 2)?
robust z-score, replicate 1: -0.1; robust z-score, replicate 2: 0.518; robust z-score, replicate 3: 0.569; call: inactive

For SSPOP (SCO-spondin, pseudogene), how do the results read?
robust z-score, replicate 1: 2.14; robust z-score, replicate 2: -0.675; robust z-score, replicate 3: 1.67; call: inactive

With RPS12P23 (ribosomal protein S12 pseudogene 23), what was measured?
robust z-score, replicate 1: -0.942; robust z-score, replicate 2: -1.15; robust z-score, replicate 3: -1.09; call: inactive

With PHYHD1 (phytanoyl-CoA dioxygenase domain containing 1), what was measured?
robust z-score, replicate 1: 1.63; robust z-score, replicate 2: 1.22; robust z-score, replicate 3: 1.28; call: inactive

With ZNF341 (zinc finger protein 341), what was measured?
robust z-score, replicate 1: 1.09; robust z-score, replicate 2: 1.03; robust z-score, replicate 3: 0.724; call: inactive

What did the screen give for CNTLN (centlein)?
robust z-score, replicate 1: 0.545; robust z-score, replicate 2: 1.14; robust z-score, replicate 3: 1.62; call: inactive

With LINC00898 (long independently transcribed non-coding RNA 898), how do the results read?
robust z-score, replicate 1: 1.02; robust z-score, replicate 2: 1.24; robust z-score, replicate 3: 1.31; call: inactive

For HSPA12A (heat shock protein family A (Hsp70) member 12A), how do the results read?
robust z-score, replicate 1: 1.09; robust z-score, replicate 2: 0.788; robust z-score, replicate 3: 1.18; call: inactive

What did the screen give for ARID3A (AT-rich interaction domain 3A)?
robust z-score, replicate 1: -1.53; robust z-score, replicate 2: 0.0454; robust z-score, replicate 3: 0.233; call: inactive

With MON1B (MON1 vesicular trafficking associated B), what does the deposit list?
robust z-score, replicate 1: 0.617; robust z-score, replicate 2: 0.635; robust z-score, replicate 3: 1.12; call: inactive

Which result is listed for MROH8 (maestro heat like repeat family member 8)?
robust z-score, replicate 1: 0.0867; robust z-score, replicate 2: -0.0529; robust z-score, replicate 3: -1.13; call: inactive

A few values from above.
SPINDOC (spindlin interactor and repressor of chromatin binding), call: inactive
Entry for ARID3A (AT-rich interaction domain 3A) under “call”: inactive
